Changes are numbered by the printed parent chain. Results are given in words; binding and its absence hold for the method and conditions named. Binding seen in cells or lysates may run through a third protein. For part of these data: Binding calls can cover weak binding; strength is not graded here. For part of these data: Tags and fused reporters may be left off the sequences shown.
Experiments:
Test in all cases: split reporter
[1] = target: Arabidopsis autophagy-related gene product 8e (ATG8e), nYFP fusion (Arabidopsis) (UniProt Q8S926)
[2] = target: T1, ATG8e L52A (Arabidopsis), nYFP fusion (Arabidopsis) (UniProt Q8S926)
T1 sequence: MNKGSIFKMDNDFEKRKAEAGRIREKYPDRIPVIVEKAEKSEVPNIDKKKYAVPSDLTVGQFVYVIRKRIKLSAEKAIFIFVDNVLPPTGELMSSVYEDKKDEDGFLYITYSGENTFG

[3] = target: T2, ATG8e G118A (Arabidopsis), nYFP fusion (Arabidopsis) (UniProt Q8S926)
T2 sequence: T1 sequence with A52L, G118A

## Nicotiana tabacum Regulator of Gene Silencing Calmodulin (rgsCaM), C-terminal cYFP fusion (from UniProt Q9AXG2)
[1]
  binding: binds
[2]
  binding: no binding
[3]
  binding: no binding

Source: publication doi:10.1101/858092
